Here are results for three compounds from PubChem BioAssay AID926 (National Center for Advancing Translational Sciences (NCATS), 2007).

The chains behind the UniProt entries cited, without tags or fusion partners.
UniProt P16473, whole entry, looked up: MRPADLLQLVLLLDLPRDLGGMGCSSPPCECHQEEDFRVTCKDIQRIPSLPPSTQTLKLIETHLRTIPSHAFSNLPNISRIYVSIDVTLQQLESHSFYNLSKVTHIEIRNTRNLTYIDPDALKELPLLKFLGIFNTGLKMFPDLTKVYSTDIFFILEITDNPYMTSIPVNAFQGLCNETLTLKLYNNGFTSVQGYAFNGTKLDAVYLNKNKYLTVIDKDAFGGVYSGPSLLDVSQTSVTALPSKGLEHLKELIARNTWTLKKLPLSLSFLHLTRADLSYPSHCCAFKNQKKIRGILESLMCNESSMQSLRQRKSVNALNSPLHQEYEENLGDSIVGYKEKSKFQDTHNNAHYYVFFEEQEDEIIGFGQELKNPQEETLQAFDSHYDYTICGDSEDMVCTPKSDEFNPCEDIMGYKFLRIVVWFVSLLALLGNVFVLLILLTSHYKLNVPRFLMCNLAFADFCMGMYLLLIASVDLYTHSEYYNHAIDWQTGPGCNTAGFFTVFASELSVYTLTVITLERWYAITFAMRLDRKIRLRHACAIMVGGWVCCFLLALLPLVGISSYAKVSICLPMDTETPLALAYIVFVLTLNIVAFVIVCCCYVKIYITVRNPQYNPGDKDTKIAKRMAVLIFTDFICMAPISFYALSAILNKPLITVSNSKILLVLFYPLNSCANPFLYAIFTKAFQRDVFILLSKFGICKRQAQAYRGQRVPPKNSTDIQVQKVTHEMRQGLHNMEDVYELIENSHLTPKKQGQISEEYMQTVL

Out of some 73,000 compounds screened, about 350 (0.48%) were called active. About 17% were inconclusive and are not listed. The call rests on the fitted dose curve; in most records, active means well fitted activation curve with a large enough effect in the main read-out, with a control signal flat (not every such curve was filed as active); inconclusive means small, poorly fitted or top-dose-only effect, or a change in a side signal; inactive means no such curve, though single readings can be large or run the other way; % of control where 0% means no effect. The entries are a selection whose mix differs from that of the whole data set. Entries without a call were filed so in the source.

The target of the assay is Thyrotropin receptor (Homo sapiens) (UniProt P16473). Briefly: qHTS Assay for Agonists of the Thyroid Stimulating Hormone Receptor.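 Further: the control signal comes from parental cells without the receptor.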 To be noted: HEK293-CNG-TSHR cells (CNG channel as cAMP sensor), membrane potential dye, cAMP; at 11.4 µM (top of the series) unless noted. An excerpt: NIH Chemical Genomics Center [NCGC]
NIH Molecular Libraries Screening Centers Network [MLSCN]
PI Name: Dr. Marvin Gershengorn, NIH
Thyroid Stimulating Hormone Receptor
TSH is an alpha/beta heterodimeric glycoprotein hormone secreted from the anterior pituitary gland which belongs to the glycoprotein hormone family. The actions of TSH are mediated by a seven-transmembrane receptor, which upon TSH binding couples preferentially to the G-alpha (s) protein (Gs), resulting in activation of adenylate cyclase and increase in cyclic adenosine 3', 5' monophosphate (cAMP). The TSH receptor (THSR) is mainly expressed in thyroid follicular cells and regulates their growth and function. Recombinant TSH is used to activate TSHR in patients with thyroid cancer receiving thyroid hormone suppression therapy and to screen for residual tumor after surgery, but it is expensive and must be administered intramuscularly. An orally active small molecule TSHR agonist would serve as an invaluable research tool for studying TSHR pharmacology and physiology, and would have multiple advantages in therapeutic settings. However, no selective small molecule agonist of the TSH receptor exists, and no small molecule screen for TSHR agonists has ever been reported.
This cell based assay utilized a cyclic nucleotide gated ion channel (CNG) as a biosensor for cAMP induction by potential TSHR agonists.
HEK 293 cells stably expressing the TSHR as well as a modified CNG were purchased from BD biosciences. Stimulation of cAMP production causes the CNG to open and subsequent membrane depolarization to occur. […]
High Throughput Screening. […] 23 nl/well compound or control was then added to the assay plates, which were incubated for additional 30 min before reading a Envision fluorescence plate reader (Perkin Elmer) in bottom-read mode for fluorescence intensity (emission at 590 nm).
Keywords: Thyroid-stimulating hormone TSH, TSHR, TSHR agonist, quantitative high throughput screening, qHTS, HTS, probe identification, CNG, cAMP, cyclic nucleotide gated ion channel PubChem
For `O=C(O)[C@@H]1[C@H](C(=O)O)[C@]2(Cl)C(Cl)=C(Cl)[C@@]1(Cl)C2(Cl)Cl`, the activation is inactive: -2.25%.

As to `O=C(O)c1cc(N=Nc2ccc([As](=O)(O)O)cc2)ccc1O`, the activation was inactive: -58.3%. With `C=CCOC(=O)C1=C(C)OC(N)=C(C(=O)OCC)C12C(=O)N(CC(N)=O)c1ccccc12` (stereo not drawn), the activation was found to be 45.3% [at 57.1 µM].
